Paper doi:10.1101/2022.07.21.500829
No constants are given. Whether binding was seen depends on the method and setting. In cells and extracts the contact can be indirect. Here binding means that the protein was enriched with, or labelled near, the bait; the list need not be complete.

Amino acid sequences for entries named in this document (tags omitted). Residues count along the entry.
UniProt P41439, residues 23-245: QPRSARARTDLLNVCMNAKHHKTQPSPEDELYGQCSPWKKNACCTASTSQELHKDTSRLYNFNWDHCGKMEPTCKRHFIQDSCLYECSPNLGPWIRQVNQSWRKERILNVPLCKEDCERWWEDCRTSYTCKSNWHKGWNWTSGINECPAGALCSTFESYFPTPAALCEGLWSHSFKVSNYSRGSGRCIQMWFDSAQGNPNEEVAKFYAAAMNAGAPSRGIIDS
UniProt Q16769, residues 29-361: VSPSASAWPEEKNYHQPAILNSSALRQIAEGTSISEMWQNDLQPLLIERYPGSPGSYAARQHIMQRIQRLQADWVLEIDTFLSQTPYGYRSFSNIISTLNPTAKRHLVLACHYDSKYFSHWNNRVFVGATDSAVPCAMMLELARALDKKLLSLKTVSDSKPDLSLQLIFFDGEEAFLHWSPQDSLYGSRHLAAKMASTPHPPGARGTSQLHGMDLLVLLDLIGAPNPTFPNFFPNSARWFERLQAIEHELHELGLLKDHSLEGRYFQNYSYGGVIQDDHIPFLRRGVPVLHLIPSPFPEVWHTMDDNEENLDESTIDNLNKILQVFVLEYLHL
UniProt Q92743, residues 23-480: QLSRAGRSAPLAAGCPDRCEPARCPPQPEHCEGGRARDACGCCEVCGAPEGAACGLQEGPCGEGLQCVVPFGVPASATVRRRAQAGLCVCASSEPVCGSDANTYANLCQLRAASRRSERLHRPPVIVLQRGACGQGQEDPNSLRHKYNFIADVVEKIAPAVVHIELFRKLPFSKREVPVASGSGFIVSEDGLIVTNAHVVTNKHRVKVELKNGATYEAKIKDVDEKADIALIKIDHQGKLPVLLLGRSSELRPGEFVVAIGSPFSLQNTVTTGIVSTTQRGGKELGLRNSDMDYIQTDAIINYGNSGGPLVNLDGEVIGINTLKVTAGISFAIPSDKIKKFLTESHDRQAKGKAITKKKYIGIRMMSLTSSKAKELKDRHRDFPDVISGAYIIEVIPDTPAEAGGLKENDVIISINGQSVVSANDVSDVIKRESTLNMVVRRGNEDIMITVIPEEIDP

B1: midkine (protein, UniProt P21741 21-143)
chain: VAKKKDKVKKGGPGSECAEWAWGPCTPSSKDCGVGFREGTCGAQTQRIRCRVPCNWKKEFGADCKYKFENWGACDGGTGTKVRQGTLKKARYNAQCQETIRVTKPCTPKTKAKAKAKKGKGKD

target: folate receptor gamma (FOLR3) with FLAG tag (human) (UniProt P41439); test: affinity purification with mass spectrometry

binding, binds:
glutaminyl peptide cyclotransferase (from UniProt Q16769 29-361) (enzyme)
serine protease HTRA1 (from UniProt Q92743 23-480) (enzyme)
B1
